Results reported in patent US12269827B1, “Substituted pyrazino[1′,2′:1,5]pyrazolo[4,3-c][1,6]naphthyridines as CK2 inhibitors” (KING FAISAL UNIVERSITY, priority 2023, dated 2025).

What was measured:
Assay type in all cases: cell-based
PC3 (prostate) = assay: In vitro cytotoxic activity MTT assay, PC3; details: Homo sapiens, Prostate cell; PC3 (prostate) cells, exposed for 96 hours; read-out: Cytotoxicity activity IC50 (50% inhibition of cell proliferation)
Protocol: (§1) Compounds 1-16 were screened for their in vitro cytotoxic activity utilizing a 3-(4,5-dimethyl-thiazol-2-yl)-2,5-diphenyltetrazolium bromide (MTT) assay against selected cancer human cell lines consisting of PC3 (prostate), HCT116 (colon), A375 (melanoma), H1299 (lung), MIAPaCa-2 (pancreas), HL60 (leukemia), MCF7 (breast), MDA-MB-231 (breast) (T. Mosmann, J. Immunol. Meth., 1983, 65, 55-63). The cells were cultured at 37° C. in RMPI1640 medium supplemented with 10% fetal bovine serum, 50 IU/mL penicillin, and 50 µg/mL streptomycin in a 5% CO2 incubator. All cells were sub-cultured 3 times/week by trypsinisation. Viable cells were seeded and allowed to adhere for 12 hours before a test drug was added in 96-well plates at an initial density of 1.0×10^5 cells/mL. Tumor cell lines were separately exposed to various concentrations of the tested compounds followed by incubation at a temperature of 37° C. during 96 hours inside a medium of fresh RMPI 1640. Cells were subsequently incubated at 37° C. using MTT at 0.5 mg/mL during 4 hours. After removal of supernatant, formazan crystals were dissolved in isopropanol and the optical density was measured at 570 nm. CX-4945 was used as a positive control.

HL60 (leukemia) = assay: In vitro cytotoxic activity MTT assay, HL60; details: Homo sapiens, HL-60; HL60 (leukemia) cells, exposed for 96 hours; read-out: Cytotoxicity activity IC50 (50% inhibition of cell proliferation)
Protocol: as §1

HCT116 (colon) = assay: In vitro cytotoxic activity MTT assay, HCT116; details: Homo sapiens, HCT-116; HCT116 (colon) cells, exposed for 96 hours; read-out: Cytotoxicity activity IC50 (50% inhibition of cell proliferation)
Protocol: as §1

MIAPaCa-2 (pancreas) = assay: In vitro cytotoxic activity MTT assay, MIAPaCa-2; details: Homo sapiens, MIA PaCa-2; MIAPaCa-2 (pancreas) cells, exposed for 96 hours; read-out: Cytotoxicity activity IC50 (50% inhibition of cell proliferation)
Protocol: as §1

MCF7 (breast) = assay: In vitro cytotoxic activity MTT assay, MCF7; details: Homo sapiens; MCF7 (breast) cells, exposed for 96 hours; read-out: Cytotoxicity activity IC50 (50% inhibition of cell proliferation)
Protocol: as §1

MDA-MB-231 (breast) = assay: In vitro cytotoxic activity MTT assay, MDA-MB-231; details: Homo sapiens; MDA-MB-231 (breast) cells, exposed for 96 hours; read-out: Cytotoxicity activity IC50 (50% inhibition of cell proliferation)
Protocol: as §1

A375 (melanoma) = assay: In vitro cytotoxic activity MTT assay, A375; details: Homo sapiens, A-375; A375 (melanoma) cells, exposed for 96 hours; read-out: Cytotoxicity activity IC50 (50% inhibition of cell proliferation)
Protocol: as §1

H1299 (lung) = assay: In vitro cytotoxic activity MTT assay, H1299; details: Homo sapiens, NCI-H1299; H1299 (lung) cells, exposed for 96 hours; read-out: Cytotoxicity activity IC50 (50% inhibition of cell proliferation)
Protocol: as §1

## O=C(O)c1ccc2c(c1)nc(Nc1cccc(Cl)c1)c1ccncc12 [CX-4945, reference compound]
PC3 (prostate)
  IC50: 2000 nM
HL60 (leukemia)
  IC50: 3700 nM
HCT116 (colon)
  IC50: 2300 nM
MIAPaCa-2 (pancreas)
  IC50: 1000 nM
MCF7 (breast)
  IC50: 9100 nM
MDA-MB-231 (breast)
  IC50: 6200 nM
A375 (melanoma)
  IC50: 4100 nM
H1299 (lung)
  IC50: 2300 nM
